The results in this text go back to patent US20140120095A1.

The chains behind the UniProt entries cited, without tags or fusion partners. Where a name states a change or a piece, a line headed by the entry shows the natural chain unless it says otherwise. Residues count along the entry.
UniProt Q9JI71, residues 27-686: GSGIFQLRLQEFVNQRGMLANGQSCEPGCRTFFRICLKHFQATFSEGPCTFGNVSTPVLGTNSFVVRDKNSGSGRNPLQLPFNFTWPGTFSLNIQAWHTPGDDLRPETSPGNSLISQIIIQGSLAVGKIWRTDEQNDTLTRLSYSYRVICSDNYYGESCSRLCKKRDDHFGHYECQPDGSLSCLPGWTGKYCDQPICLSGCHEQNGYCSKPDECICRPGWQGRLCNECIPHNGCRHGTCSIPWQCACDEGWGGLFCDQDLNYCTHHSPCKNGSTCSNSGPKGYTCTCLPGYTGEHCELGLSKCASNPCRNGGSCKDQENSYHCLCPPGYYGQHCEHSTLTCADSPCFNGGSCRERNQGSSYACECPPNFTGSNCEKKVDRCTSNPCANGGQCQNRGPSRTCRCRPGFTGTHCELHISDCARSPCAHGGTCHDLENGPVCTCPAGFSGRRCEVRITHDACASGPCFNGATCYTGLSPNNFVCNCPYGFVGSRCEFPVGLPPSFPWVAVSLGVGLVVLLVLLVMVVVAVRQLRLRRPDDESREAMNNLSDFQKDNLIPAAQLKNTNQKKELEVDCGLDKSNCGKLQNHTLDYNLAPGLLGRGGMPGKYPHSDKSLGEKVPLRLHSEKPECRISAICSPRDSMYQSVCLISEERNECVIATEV
UniProt P46531, residues 19-526: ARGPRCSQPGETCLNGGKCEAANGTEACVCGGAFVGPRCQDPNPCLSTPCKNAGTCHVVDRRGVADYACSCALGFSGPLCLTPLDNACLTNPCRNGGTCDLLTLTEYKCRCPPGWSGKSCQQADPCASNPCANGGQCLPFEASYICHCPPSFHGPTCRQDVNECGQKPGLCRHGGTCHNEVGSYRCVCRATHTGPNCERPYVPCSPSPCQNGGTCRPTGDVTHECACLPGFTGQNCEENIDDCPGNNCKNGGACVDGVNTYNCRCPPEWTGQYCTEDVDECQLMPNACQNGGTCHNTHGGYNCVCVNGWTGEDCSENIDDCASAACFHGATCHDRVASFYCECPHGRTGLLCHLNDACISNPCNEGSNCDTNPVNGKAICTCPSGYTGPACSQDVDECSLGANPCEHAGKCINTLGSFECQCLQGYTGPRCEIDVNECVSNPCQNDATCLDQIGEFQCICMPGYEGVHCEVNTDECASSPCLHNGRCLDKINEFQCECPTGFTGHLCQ

Like-named read-outs stand apart in the source and are kept apart here. No constants are given. Whether binding was seen depends on the method and setting. Some binding calls cover weakened binding; strength is not graded here.

In test [1] the target is mouse DLL4 expressed on CHO cells (mouse) (UniProt Q9JI71). Description: FMAT competition on CHO-mDLL4 cells; unlabelled rhNotch1-Fc competes with Alexa-647 labelled hNotch1-Fc.
The target in test [2] is T1, PIGF (UniProt P49763).
T1 sequence (looked up): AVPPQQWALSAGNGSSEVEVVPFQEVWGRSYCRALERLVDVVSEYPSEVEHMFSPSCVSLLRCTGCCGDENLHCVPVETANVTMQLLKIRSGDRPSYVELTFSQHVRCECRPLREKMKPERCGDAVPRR
Description: binding ELISA on coated PIGF (Example 12.8), receptor positive control, OD 450 nm.

The target of test [3] is T2, VEGFB (UniProt P49765).
T2 sequence (looked up): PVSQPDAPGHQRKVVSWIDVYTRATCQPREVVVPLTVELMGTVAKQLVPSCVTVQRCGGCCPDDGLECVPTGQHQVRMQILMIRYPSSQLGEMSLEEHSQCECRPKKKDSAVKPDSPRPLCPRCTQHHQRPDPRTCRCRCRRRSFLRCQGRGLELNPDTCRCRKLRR
The test can be described thus: binding ELISA on coated VEGFB (Example 12.8), receptor positive control, OD 450 nm.

Test [4] concerns the target T1, PIGF. The test can be described thus: solid phase binding ELISA on coated PIGF (Example 12.8), receptor as positive control.
Test [5] addresses T2, VEGFB. Description: binding ELISA on coated VEGFB (Example 12.8), receptor positive control, OD 450 nm. This is another data set of the same source.

In the case of “human Notch1/Fc chimera (R&D Systems) (from UniProt P46531 19-526) (Fc fusion)”, the binding result in test [1] is given as “binds”.
For the substance “human VEGFR1-Fc chimera (from UniProt P17948 27-687) (Fc fusion)”, the binding entry with PIGF [2], with VEGFB [3], with PIGF [4] and with VEGFB [5] was “binds” each time.
